Among all 400,000 compounds or so, about 13,000 (3.2%) were called active. The inconclusive results got no clear call from the source; some entries with a clear call stand among them for comparison. Calls follow the shape of the dose curve; as a rule, active = well fitted cell-killing curve with a large enough effect; inconclusive = small, poorly fitted or top-dose-only effect, or effect the other way; inactive = flat fitted curve, though single readings scatter. A potency beside an inconclusive call is a rough fit, not a confirmed value.
assay: qHTS assay for MDR1-selective chemotherapeutics: Primary screen using the drug-selected MDR subline cells KB-V1; details: KB-V1 MDR cells viability, CellTiter-Glo, 72 h; activity change, negative = cytotoxicity: at 46.1 µM (top of the series); also: nearly all actives have a fitted effect of over 60% in size
Outline: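 Drug-selected KB-V1 cells, grown in DMEM lacking phenol red with 10% FBS, receive compound titrations; after three days at 37 degrees C, surviving cell ATP is quantified by CellTiter-Glo luminescence and responses normalized and curve-fitted.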
% is scaled to controls: 0 for no effect and ±100 for the full control effect; potency is read from the fitted curve at half-maximal effect.

Row | Structure (SMILES) | Potency | activity change, negative = cytotoxicity
1 | COc1cccc(CCOC(=O)c2c(-c3ccsc3)oc3c2C(OC(C)=O)CCC3)c1 (stereo not drawn) | inconclusive: 11.6 µM [cytotoxic, partial curve] | 
2 | O=C(COC(=O)CN1C(=O)C2CCCCC2C1=O)NCc1ccc(Cl)cc1Cl (stereo not drawn) |  | inactive: 28.7%
3 | CCc1nnc(NC(=O)c2nc(S(=O)(=O)Cc3cccc(C)c3)ncc2Cl)s1 | inconclusive: 14.6 µM [cytotoxic, partial curve] | 
4 | O=C1C(=Cc2cccn2-c2ccccc2)C(=O)c2ccccc21 |  | inactive: -3.04%
5 | O=C(C1CN(C(=O)c2cc3cc(Cl)ccc3o2)c2ccccc2O1)N1CCCCC1 (stereo not drawn) | active: 20.6 µM | 
6 | OC1(c2ccccc2)CCN(Cc2ccccc2)C2CCCCC21 (stereo not drawn) | active: 23.1 µM | 
7 | OC(c1ccccc1)c1ncc(-c2ccc(Cl)cc2)[nH]1 (stereo not drawn) | inconclusive: 10.3 µM [rising, partial curve] | 
8 | COc1cc(OC)cc(C(=O)N2CCN(C3CCCCC3)CC2)c1 |  | inactive: -16.8%
9 | Cc1cnn(-c2cc(Oc3ccccc3)ncn2)c1 |  | inactive: -5.46%
10 | COc1ccc(C(C#N)=Cc2ccc(OC)c(OC)c2)cc1 |  | inactive: -44.6%
11 | CCOC(=O)C1=C(CN2CC(C)CC(C)C2)NC(=O)NC1c1ccc2c(c1)OCO2 (stereo not drawn) | active: 18.4 µM | 
12 | Cc1ccccc1Oc1ccc2c(c1)[C@@H]1C[C@H](N(C)C(=O)c3ccc(C#N)cc3)[C@H]([C@H](C)O)C(=O)N1CC2 | inconclusive: 29.1 µM [rising, partial curve, poor fit] | 
13 | O=[N+]([O-])/C(Cl)=C(/NCCO)C(Cl)=C(Cl)Cl | inconclusive: 23.1 µM [cytotoxic, single point] | 
14 | Cc1ccc(NC(=O)c2ccc(=O)[nH]c2)cc1S(=O)(=O)N1CCCCC1 |  | inactive: -5.3%
15 | Cc1cc(C)nc(N/N=C/c2ccccc2OCc2cccc(Br)c2)n1 | inconclusive: 20.6 µM [cytotoxic, single point] | 
16 | CCCCCCCN1N=C(C)C(C(=O)c2ccccc2)C1=O (stereo not drawn) | inconclusive: 18.4 µM [cytotoxic, single point] | 
17 | Cc1ccc(C(=C2C3C=CC2C2C(=O)NC(=O)C32)c2ccc(C)cc2)cc1 (stereo not drawn) | active: 14.6 µM | 
18 | CCN=c1scc(-c2ccc(F)cc2)n1/N=C/c1ccccn1 | inconclusive: 23.1 µM [cytotoxic, single point] | 
19 | COc1ccc(OC)c(S(=O)(=O)N2CCC(C(=O)NCCc3ccccc3)CC2)c1 | inconclusive: 18.4 µM [cytotoxic, single point] | 
20 | Cc1sc2nc(CSCC(=O)NC3CCCCC3)[nH]c(=O)c2c1C | inconclusive: 11.6 µM [cytotoxic, partial curve] | 
21 | Cc1ccc(C2C3=C(CC(C)(C)CC3=O)Nc3n[nH]c(C)c32)cc1 (stereo not drawn) | inconclusive: 25.9 µM [rising, single point] | 
22 | CN(C)c1ccc(-c2ccc(CCO)cc2)cc1 |  | inactive: -9.3%
23 | CC(C)c1ccc(N(CC(=O)NCc2cccnc2)S(=O)(=O)c2ccccc2)cc1 | inconclusive: 7.31 µM [cytotoxic, partial curve] | 

Row | Structure (SMILES) | Potency | activity change, negative = cytotoxicity
24 | CCCCCN1CSC(=S)N(Cc2ccccc2)C1 | inconclusive: 20.6 µM [cytotoxic, single point] | 
25 | CCOc1ccccc1Oc1cn[nH]c1-c1ccc(OC)cc1O | inconclusive: 29.1 µM [cytotoxic, single point] | 
26 | Cc1cccc(NC(=O)c2ccc(S(=O)(=O)N(C)c3ccccc3)cc2)n1 | inconclusive: 25.9 µM [cytotoxic, single point] | 
27 | COc1ccc(NC(=O)Cn2c(=O)n(CCCC(=O)NCc3ccccc3OC)c(=O)c3ccccc32)cc1Cl |  | inconclusive: -16.3%
28 | CCOc1cc(/C=C(\C#N)c2[nH]nc(N)c2C#N)ccc1O | inconclusive: 29.1 µM [cytotoxic, partial curve, poor fit] | 
29 | O=C(Nc1ccccn1)c1ccc(C(=O)c2ccccc2)cc1 | inconclusive: 23.1 µM [cytotoxic, partial curve, poor fit] | 
30 | Cc1ccc(C)c(OCc2nc3ccc(S(=O)(=O)Nc4c(C)n(C)n(-c5ccccc5)c4=O)cc3[nH]2)c1 | inconclusive: 29.1 µM [rising, single point] | 
31 | COC(=O)c1cnn(-c2ccc(C(=O)Nc3cccc(C(C)=O)c3)cc2)c1N | inconclusive: 13 µM [rising, partial curve, poor fit] | 
32 | CC(C)NC(=O)CCCc1ccccc1 |  | inactive: -0.0681%
33 | OC(CNCC1(N2CCCCC2)CCCCC1)COc1ccc(Cl)cc1Cl (stereo not drawn) | inconclusive: 2.91 µM [cytotoxic, partial curve] | 
34 | CCn1c(=O)cc(OCC(=O)O)c2ccccc21 | inconclusive: 29.1 µM [rising, partial curve, poor fit] | 
35 | c1cncc(CNc2ncnc3sc4c(c23)CCCC4)c1 | inconclusive: 18.4 µM [cytotoxic, single point] | 
36 | Cc1cc(S(=O)(=O)N2CCCCC2)ccc1OCC(=O)N1CCCC1 | inconclusive: 13 µM [cytotoxic, partial curve, poor fit] | 
37 | CC1(C(=O)Nc2ccc3c(c2)OCCO3)CCC(=O)N1C1CC1 (stereo not drawn) |  | inactive: -4.61%
38 | CC(C)C[C@@H](CN1CCCC1CN1C(=S)NC[C@@H]1Cc1ccc(O)cc1)N1C[C@H](Cc2ccc(O)cc2)N(CC2CCCCC2)C1=S (stereo partly drawn) | inconclusive: 29.1 µM [cytotoxic, single point] | 
39 | CC1=C/C(=N\OS(=O)(=O)c2ccccc2)C(C)=CC1=O | active: 5.8 µM | 
40 | CC(C)(C)n1cnc2cc(NC(=O)c3cccs3)ccc21 | inconclusive: 20.6 µM [cytotoxic, single point] | 
41 | Cc1c(/C=N/n2cnnc2)c2ccccc2n1CCOc1ccc(Cl)cc1 | inconclusive: 7.31 µM [cytotoxic, partial curve] | 
42 | COc1ccc(NC(=O)CSc2c3c(nc4cc(Cl)ccc24)CCCC3)cc1OC | inconclusive: 20.6 µM [cytotoxic, single point] | 
43 | N=c1ccn(Cc2ccc(F)cc2)cc1 |  | inactive: 26.5%
44 | COc1cc(/C=N/NC(=O)c2ccc(CN3c4cccc5cccc(c45)S3(=O)=O)cc2)cc(OC)c1O |  | inactive: -11.4%
45 | Cc1ccc(C)c(OCC(=O)Nc2c[nH]c(=O)[nH]c2=O)c1 | inconclusive: 0.231 µM [cytotoxic, full curve, poor fit] | 
46 | CN1CCN(C(=S)Nc2ccc(Cl)c(Cl)c2)CC1 | inconclusive: 25.9 µM [cytotoxic, partial curve, poor fit] | 

3 of the compounds above, in markdown:

| Row | Structure (SMILES) | Potency | activity change, negative = cytotoxicity |
| --- | --- | --- | --- |
| 28 | CCOc1cc(/C=C(\C#N)c2[nH]nc(N)c2C#N)ccc1O | inconclusive: 29.1 µM [cytotoxic, partial curve, poor fit] |  |
| 29 | O=C(Nc1ccccn1)c1ccc(C(=O)c2ccccc2)cc1 | inconclusive: 23.1 µM [cytotoxic, partial curve, poor fit] |  |
| 30 | Cc1ccc(C)c(OCc2nc3ccc(S(=O)(=O)Nc4c(C)n(C)n(-c5ccccc5)c4=O)cc3[nH]2)c1 | inconclusive: 29.1 µM [rising, single point] |  |

Carrying on:

Row | Structure (SMILES) | Potency | activity change, negative = cytotoxicity
47 | COc1ccc(C(=O)NCCC2=CCCCC2)cc1[N+](=O)[O-] | inconclusive: 29.1 µM [cytotoxic, single point] | 
48 | CC1(C)C=C2C(=NN(c3ccccc3)C(N)=C2C#N)CO1 |  | inactive: 0.776%
49 | Cc1cc(S(=O)(=O)Nc2cccc(Cl)c2)c(C)s1 |  | inactive: 1.71%
50 | N#CC(Cc1cccc(CC(C#N)(c2ccccc2)c2ccccc2)c1)(c1ccccc1)c1ccccc1 |  | inactive: -6.61%
51 | Cc1ccc(-c2cc(-c3ccc(C)cc3O)[nH]n2)cc1 |  | inactive: 6.42%
52 | COc1ccc(S(=O)(=O)N2CCCCCC2)cc1C(=O)N1CCN(c2ccc(F)cc2)CC1 | inconclusive: 29.1 µM [cytotoxic, partial curve, poor fit] | 
53 | S=C(NCCc1ccccc1)N1CCn2cccc2C1c1ccncc1 (stereo not drawn) | inconclusive: 16.4 µM [cytotoxic, single point] | 
54 | C=CCN1C(=O)c2ccccc2NC1c1ccc(Br)s1 (stereo not drawn) | inconclusive: 13 µM [cytotoxic, partial curve] | 
55 | Cc1ccc(CNC(=O)C(=O)NCC2OCCN2S(=O)(=O)c2ccc3c(c2)OCCO3)cc1 (stereo not drawn) | inconclusive: 29.1 µM [cytotoxic, partial curve, poor fit] | 
56 | CCCn1c(=O)c(C(=O)Nc2c(C)n(C)n(-c3ccccc3)c2=O)c(O)c2ccccc21 | inconclusive: 1.84 µM [cytotoxic, full curve, poor fit] | 
57 | CCN(CC(=O)Nc1ccc2c(c1)OCCO2)Cc1cc(=O)oc2cc(C)c(C)cc12 | active: 5.17 µM | 
58 | COc1cccc(CC(NC(C)=O)C(=O)NC2CCN(c3c4c(nc5ncnn35)CCC4)CC2)c1 (stereo not drawn) | inconclusive: 13 µM [rising, partial curve, poor fit] | 
59 | COc1cccc(CN(C)C(=S)Nc2cccc(C)c2)c1 | inconclusive: 29.1 µM [cytotoxic, single point] | 
60 | COC(=O)Nc1ccc(S(=O)(=O)N2CCCc3cccc(O)c32)cc1 | inconclusive: 23.1 µM [cytotoxic, single point] | 
61 | COc1c2c(c(CCC(=O)O)c3c1C=CC(C)(C)O3)OC(C)(C)C=C2 |  | inactive: 15.1%
62 | O=C(Nc1ccc(C(F)(F)F)cc1[N+](=O)[O-])O[C@H]1[C@H](Cc2ccccc2)NS(=O)(=O)[C@H]2C[C@@H]3C=C[C@]12O3 | inconclusive: 29.1 µM [cytotoxic, single point] | 
63 | CC1CCC2C(C1)c1sc(=O)[nH]c1SC2(C)C (stereo not drawn) | active: 18.4 µM | 
64 | Cc1ccc2nc(Cl)c(/C=C/C(=O)c3ccco3)cc2c1 |  | inactive: -2.24%
65 | N#CC(C#N)=Cc1cn(-c2ncc(C(F)(F)F)cc2Cl)c2ccccc12 | inconclusive: 14.6 µM [rising, partial curve, poor fit] | 
66 | O=C(NCCC1=CCCCC1)c1cc(S(=O)(=O)N2CCOCC2)c(Cl)cc1Cl | inconclusive: 6.51 µM [cytotoxic, full curve] | 
67 | COC(=O)[C@@]12C[C@@H](CC(=O)N3CCOCC3)C(=O)N(Cc3cccc4ccccc34)C1=CCC(C)(C)C2 | inconclusive: 8.2 µM [cytotoxic, partial curve] | 
68 | CN(CCc1cn[nH]c1)C(=O)C1CCC(=O)N(CC2CCCCC2)C1 (stereo not drawn) | inconclusive: 7.31 µM [rising, partial curve, poor fit] | 

Source: PubChem BioAssay AID1347076 (National Center for Advancing Translational Sciences (NCATS), 2019)
